Consider one substance from article PMC9588786.

Amino acid sequences for entries named in this document (tags omitted).
UniProt P06730: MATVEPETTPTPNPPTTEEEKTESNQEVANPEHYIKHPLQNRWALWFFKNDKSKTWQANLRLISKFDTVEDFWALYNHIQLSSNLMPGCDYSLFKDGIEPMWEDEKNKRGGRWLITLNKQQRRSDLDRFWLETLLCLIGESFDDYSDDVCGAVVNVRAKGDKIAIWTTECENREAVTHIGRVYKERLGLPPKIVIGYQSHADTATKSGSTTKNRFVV
UniProt P51648: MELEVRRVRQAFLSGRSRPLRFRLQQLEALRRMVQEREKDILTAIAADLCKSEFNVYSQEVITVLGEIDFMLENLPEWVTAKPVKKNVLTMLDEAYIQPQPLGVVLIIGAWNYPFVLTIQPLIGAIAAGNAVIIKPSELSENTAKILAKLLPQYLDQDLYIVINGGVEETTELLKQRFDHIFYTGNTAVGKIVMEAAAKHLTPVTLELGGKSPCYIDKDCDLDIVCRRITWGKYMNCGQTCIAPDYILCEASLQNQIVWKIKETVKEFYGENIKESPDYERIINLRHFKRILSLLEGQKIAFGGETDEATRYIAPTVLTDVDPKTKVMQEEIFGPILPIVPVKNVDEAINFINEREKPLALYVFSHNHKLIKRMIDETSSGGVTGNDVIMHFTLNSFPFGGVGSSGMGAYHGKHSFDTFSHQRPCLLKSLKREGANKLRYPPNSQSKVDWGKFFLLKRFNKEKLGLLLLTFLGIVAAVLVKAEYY

This assay concerns the target eukaryotic initiation factor 4E (EIF4E) (human (endogenous in HT-1080 and Calu-1)) (UniProt P06730). Briefly: co-IP; anti-EIF4E antibody (clone 5D11) with protein A agarose beads on cleared RIPA lysates of HT-1080 or Calu-1 cells, 4 °C, immunoblot of partners; cells untreated or treated with RSL3, 4EGI-1, 4E1RCat, deferoxamine, 20% FBS, staurosporine, or with EIF4G1 knock-down. Background: A western blot detects proteins with antibodies after separation by electrophoresis.

Results are given in words; binding and its absence hold for the method and conditions named. Binding seen in cells or lysates may run through a third protein.

On to “aldehyde dehydrogenase 3 family member A2 (ALDH3A2) (from UniProt P51648 1-485) (enzyme)”, for which the binding result is recorded as “no binding”.
